Measured values taken from PMC8575462, “PP2A/B55α substrate recruitment as defined by the retinoblastoma-related protein p107” (eLife, 2021).
Positions count from the first letter of the chain named. Names may count otherwise. Results are given in words; binding and its absence hold for the method and conditions named. In cells and extracts the contact can be indirect. Some entries that bind do so weakly or less than the wild type. Tags and fused reporters may be left off the sequences shown. Each block holds one molecule with its values, some of them ahead of it.

Amino acid sequences for entries named in this document (tags omitted).
UniProt Q16254: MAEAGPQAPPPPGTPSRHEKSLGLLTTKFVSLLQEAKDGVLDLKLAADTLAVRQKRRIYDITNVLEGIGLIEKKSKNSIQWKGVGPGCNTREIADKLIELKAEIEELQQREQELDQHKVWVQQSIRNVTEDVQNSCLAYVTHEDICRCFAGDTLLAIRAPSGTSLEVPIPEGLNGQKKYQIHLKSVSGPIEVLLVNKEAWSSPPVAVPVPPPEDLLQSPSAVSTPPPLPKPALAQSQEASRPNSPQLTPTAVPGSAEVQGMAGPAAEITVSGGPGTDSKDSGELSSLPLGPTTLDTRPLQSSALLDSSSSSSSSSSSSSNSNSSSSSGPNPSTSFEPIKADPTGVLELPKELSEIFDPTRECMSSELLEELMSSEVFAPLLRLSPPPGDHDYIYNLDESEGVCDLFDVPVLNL

Columns and labels:
[1] = molecular target: T1, Flag-p107 in U-2 OS cells (UniProt P28749); assay: co-IP; U-2 OS cells co-transfected with Flag-p107, HA-E2F4, with or without Myc-B55α and/or cyclin E; IP with anti-Flag agarose; western blot
T1 sequence: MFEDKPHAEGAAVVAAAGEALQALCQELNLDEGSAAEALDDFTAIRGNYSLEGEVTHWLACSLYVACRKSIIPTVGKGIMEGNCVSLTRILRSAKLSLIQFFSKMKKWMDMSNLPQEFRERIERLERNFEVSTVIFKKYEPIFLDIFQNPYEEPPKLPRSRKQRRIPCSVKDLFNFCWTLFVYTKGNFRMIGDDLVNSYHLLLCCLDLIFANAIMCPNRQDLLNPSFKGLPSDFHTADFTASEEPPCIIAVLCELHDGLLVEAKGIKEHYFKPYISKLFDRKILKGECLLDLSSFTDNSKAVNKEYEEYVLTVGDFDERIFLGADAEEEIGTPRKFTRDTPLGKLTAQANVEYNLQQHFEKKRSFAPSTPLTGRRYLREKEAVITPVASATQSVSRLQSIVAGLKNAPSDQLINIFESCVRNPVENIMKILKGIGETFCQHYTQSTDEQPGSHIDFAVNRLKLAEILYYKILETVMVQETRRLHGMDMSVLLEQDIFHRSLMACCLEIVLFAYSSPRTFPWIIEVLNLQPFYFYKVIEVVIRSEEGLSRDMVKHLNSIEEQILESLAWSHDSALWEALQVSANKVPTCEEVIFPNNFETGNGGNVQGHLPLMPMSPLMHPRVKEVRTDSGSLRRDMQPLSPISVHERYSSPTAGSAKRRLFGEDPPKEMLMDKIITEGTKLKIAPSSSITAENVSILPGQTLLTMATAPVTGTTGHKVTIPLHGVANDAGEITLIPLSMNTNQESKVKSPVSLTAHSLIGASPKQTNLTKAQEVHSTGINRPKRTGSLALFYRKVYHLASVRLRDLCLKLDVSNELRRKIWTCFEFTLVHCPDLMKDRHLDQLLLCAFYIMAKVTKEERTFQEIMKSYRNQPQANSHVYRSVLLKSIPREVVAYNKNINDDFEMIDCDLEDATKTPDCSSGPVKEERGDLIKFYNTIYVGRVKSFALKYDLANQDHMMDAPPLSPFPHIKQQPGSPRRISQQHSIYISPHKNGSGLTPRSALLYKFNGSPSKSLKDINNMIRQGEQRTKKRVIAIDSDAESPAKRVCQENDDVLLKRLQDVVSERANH

Flag-p107 SLiM MT = molecular target: T2, Flag-p107 SLiM MT (UniProt P28749); assay: co-IP; 293T cells co-transfected with WT or SLiM MT Flag-p107 and Myc-B55α wildtype or D197K; IP with anti-Flag agarose
T2 sequence: T1 sequence with H619A, R621A, V622A, V625A

- binding [1]: binds
Molecule: HA-E2F4 (from UniProt Q16254 1-413)

- binding (Flag-p107 SLiM MT): no binding
B1: Myc-B55α D197K (protein, UniProt P63151 1-447)
chain: MAGAGGGNDIQWCFSQVKGAVDDDVAEADIISTVEFNHSGELLATGDKGGRVVIFQQEQENKIQSHSRGEYNVYSTFQSHEPEFDYLKSLEIEEKINKIRWLPQKNAAQFLLSTNDKTIKLWKISERDKRPEGYNLKEEDGRYRDPTTVTTLRVPVFRPMDLMVEASPRRIFANAHTYHINSISINSDYETYLSADKLRINLWHLEITDRSFNIVDIKPANMEELTEVITAAEFHPNSCNTFVYSSSKGTIRLCDMRASALCDRHSKLFEEPEDPSNRSFFSEIISSISDVKFSHSGRYMMTRDYLSVKIWDLNMENRPVETYQVHEYLRSKLCSLYENDCIFDKFECCWNGSDSVVMTGSYNNFFRMFDRNTKRDITLEASRENNKPRTVLKPRKVCASGKRKKDEISVDSLDFNKKILHTAWHPKENIIAVATTNNLYIFQDKVN
